Results from article PMC10117725, “From an Hsp90 - binding protein to a peptide drug” (microLife, 2022).
These are yes or no findings as the source states them, for the method shown. Binding calls can cover weak binding; strength is not graded here.

Sequences of proteins named here, by UniProt entry; tags and fusion partners are left off. A change or cut given only in a name is not applied to a line headed by its entry.
UniProt Q2FJK4: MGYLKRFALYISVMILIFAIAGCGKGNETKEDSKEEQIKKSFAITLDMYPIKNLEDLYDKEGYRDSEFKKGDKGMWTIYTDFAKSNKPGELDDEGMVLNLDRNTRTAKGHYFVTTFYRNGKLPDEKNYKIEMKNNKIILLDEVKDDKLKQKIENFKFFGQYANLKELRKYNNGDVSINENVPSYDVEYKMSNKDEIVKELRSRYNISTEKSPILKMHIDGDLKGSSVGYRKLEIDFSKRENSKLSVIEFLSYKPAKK

Key:
Test in all cases: far-Western, overlay or dot blot; both purified
[1] = biological target: T1, L13 (Staphylococcus aureus USA300)
T1 sequence (peptide): GHYFVTTFY

[2] = biological target: T2, L15 (Staphylococcus aureus USA300)
T2 sequence (peptide): TAKGHYFVTTFYRNG

[3] = biological target: Lpl1-his (Staphylococcus aureus USA300) (UniProt Q2FJK4)

## Lpl1-his (from UniProt Q2FJK4)
[1]
  binding: binds
[2]
  binding: binds

## recombinant Hsp90α (from UniProt P07900 1-732)
[3]
  binding: binds
